Experimental data taken from paper PMC5352113.

Amino acid sequences for entries named in this document (tags omitted). Residues count along the entry.
UniProt P29317, residues 24-976: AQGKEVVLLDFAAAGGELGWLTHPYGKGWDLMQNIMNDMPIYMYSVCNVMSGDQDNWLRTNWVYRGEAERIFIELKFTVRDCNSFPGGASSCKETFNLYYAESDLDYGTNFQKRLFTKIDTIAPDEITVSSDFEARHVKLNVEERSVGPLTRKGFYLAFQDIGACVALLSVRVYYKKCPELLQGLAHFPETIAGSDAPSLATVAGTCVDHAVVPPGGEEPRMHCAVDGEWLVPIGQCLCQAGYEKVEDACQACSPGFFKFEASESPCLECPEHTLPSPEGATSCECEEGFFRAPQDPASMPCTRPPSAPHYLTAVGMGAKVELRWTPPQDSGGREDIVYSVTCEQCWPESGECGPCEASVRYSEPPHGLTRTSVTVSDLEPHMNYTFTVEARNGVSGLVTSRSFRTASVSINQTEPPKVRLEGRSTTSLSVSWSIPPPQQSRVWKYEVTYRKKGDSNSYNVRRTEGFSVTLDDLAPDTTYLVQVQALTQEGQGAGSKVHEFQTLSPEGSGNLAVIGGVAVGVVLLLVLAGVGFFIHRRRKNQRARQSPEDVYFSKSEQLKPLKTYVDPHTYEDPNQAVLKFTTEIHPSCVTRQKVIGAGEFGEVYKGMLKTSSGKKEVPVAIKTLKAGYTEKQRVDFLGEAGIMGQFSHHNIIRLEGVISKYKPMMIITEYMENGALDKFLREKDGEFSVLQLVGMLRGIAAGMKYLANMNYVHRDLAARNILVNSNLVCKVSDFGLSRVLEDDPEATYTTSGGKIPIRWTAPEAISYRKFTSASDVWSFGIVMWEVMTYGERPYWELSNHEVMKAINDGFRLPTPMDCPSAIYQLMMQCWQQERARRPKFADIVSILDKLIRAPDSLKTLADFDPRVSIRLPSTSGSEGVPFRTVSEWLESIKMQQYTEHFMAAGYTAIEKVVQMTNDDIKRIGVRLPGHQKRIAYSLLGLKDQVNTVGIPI
UniProt P42224: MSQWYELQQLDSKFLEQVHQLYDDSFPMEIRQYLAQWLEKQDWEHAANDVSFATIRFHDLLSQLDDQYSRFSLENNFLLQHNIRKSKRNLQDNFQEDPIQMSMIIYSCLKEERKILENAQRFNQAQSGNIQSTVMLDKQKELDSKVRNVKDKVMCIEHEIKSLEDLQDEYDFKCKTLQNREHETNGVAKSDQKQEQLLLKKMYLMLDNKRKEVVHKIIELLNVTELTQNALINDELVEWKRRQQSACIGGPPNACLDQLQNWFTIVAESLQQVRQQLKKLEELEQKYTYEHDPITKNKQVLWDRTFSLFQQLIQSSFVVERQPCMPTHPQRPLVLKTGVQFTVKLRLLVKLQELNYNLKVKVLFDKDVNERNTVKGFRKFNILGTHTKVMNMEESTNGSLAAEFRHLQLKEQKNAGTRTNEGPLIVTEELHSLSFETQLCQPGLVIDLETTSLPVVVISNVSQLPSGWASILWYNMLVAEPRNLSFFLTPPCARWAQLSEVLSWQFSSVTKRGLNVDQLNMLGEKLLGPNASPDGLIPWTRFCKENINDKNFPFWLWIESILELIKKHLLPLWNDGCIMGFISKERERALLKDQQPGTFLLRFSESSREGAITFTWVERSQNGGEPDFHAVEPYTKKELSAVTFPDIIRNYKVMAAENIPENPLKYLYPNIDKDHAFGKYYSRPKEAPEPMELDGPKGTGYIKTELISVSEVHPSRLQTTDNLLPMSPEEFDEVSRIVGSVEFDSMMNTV
UniProt P40763: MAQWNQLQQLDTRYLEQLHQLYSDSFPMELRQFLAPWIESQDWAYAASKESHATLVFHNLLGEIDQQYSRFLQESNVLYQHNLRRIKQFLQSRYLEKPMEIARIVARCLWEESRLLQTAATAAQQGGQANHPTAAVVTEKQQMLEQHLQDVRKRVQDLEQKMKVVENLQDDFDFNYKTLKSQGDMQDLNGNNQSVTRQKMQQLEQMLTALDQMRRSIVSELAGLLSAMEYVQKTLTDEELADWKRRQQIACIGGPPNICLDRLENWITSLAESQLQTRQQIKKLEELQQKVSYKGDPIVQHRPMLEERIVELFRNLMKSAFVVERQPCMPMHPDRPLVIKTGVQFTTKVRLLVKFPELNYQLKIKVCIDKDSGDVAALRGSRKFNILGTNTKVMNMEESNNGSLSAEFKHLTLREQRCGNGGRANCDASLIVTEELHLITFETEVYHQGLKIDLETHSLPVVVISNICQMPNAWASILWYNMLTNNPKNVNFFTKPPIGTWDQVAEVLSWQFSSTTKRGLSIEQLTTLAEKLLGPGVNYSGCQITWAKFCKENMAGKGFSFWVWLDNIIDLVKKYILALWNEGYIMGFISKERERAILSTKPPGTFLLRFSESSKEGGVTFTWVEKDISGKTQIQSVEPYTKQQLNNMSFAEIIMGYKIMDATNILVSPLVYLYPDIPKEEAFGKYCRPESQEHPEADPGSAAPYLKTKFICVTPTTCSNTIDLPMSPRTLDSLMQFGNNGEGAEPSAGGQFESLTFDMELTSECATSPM
UniProt P30530, residues 26-894: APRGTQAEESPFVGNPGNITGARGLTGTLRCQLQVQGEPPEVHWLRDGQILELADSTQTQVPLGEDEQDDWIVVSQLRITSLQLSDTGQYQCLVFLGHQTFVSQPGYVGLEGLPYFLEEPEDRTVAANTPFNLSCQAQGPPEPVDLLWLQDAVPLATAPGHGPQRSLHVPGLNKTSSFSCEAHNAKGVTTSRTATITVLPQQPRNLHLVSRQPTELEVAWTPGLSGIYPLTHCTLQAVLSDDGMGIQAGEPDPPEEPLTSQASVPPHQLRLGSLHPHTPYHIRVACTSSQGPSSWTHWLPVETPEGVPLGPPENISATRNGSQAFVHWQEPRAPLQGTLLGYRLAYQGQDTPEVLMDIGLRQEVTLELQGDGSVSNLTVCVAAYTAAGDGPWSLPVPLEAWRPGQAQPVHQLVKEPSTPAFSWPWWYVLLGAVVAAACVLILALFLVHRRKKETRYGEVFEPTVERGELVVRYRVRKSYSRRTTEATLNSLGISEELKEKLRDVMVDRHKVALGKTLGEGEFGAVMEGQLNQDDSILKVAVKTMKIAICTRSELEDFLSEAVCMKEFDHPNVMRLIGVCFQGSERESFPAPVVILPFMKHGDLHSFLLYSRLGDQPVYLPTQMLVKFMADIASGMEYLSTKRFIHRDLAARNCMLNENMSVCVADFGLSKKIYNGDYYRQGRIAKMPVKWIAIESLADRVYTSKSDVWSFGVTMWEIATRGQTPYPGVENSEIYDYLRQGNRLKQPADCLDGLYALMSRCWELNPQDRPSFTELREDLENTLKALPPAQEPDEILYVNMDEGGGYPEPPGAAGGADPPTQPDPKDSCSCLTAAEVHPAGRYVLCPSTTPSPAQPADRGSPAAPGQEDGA

What follows are substances tested against T1, vascular endothelial (VE)-cadherin (human (endogenous in BLM, A375, MDA-MB-468, SKBR3)) (UniProt P33151) (assay: affinity purification with mass spectrometry; 10 mg of BLM or MDA-MB-468 cell lysate immunoprecipitated with anti-VE-cadherin or control antibodies; SDS-PAGE, three slices, trypsin, nanoLC-MS/MS; contaminants filtered with CRAPome).
T1 sequence: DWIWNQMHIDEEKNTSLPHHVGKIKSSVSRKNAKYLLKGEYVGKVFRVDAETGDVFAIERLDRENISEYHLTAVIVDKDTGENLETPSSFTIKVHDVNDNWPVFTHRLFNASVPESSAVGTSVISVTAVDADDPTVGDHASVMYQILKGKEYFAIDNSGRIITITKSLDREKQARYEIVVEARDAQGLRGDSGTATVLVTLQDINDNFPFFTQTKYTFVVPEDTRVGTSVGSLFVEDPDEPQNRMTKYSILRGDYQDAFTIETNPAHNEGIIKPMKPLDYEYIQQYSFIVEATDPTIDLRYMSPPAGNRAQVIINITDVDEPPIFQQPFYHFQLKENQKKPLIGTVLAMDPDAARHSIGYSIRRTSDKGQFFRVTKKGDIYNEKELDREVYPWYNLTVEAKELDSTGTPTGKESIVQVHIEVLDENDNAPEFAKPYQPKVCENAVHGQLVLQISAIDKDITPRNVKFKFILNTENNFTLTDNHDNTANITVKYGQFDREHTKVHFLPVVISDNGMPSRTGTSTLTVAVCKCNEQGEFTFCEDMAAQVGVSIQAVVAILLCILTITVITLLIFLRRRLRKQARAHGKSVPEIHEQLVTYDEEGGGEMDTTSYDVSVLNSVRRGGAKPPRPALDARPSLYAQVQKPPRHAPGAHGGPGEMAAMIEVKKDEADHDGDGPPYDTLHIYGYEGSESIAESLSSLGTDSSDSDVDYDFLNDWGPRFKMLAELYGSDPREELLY

binding, binds:
EPHA2 (from UniProt P29317 24-976) (receptor)
STAT1 (from UniProt P42224 1-750)
Ras
STAT3 (from UniProt P40763 1-770)
AXL (from UniProt P30530 26-894) (receptor)
AKT (human (endogenous in BLM, MDA-MB-468)) (enzyme)
JNK (human (endogenous in BLM, MDA-MB-468)) (enzyme)

These are yes or no findings as the source states them, for the method shown. In cells and extracts the contact can be indirect. A yes stands for co-enrichment or nearness to the bait. Other partners may have been found.
